From patent US20240301073A1 (SCHOLAR ROCK, published 2024)
No constants are given. Whether binding was seen depends on the method and setting. Some entries that bind do so weakly or less than the wild type.

Amino acid sequences for entries named in this document (tags omitted). A change or cut given only in a name is not applied to a line headed by its entry.
UniProt Q86YC3: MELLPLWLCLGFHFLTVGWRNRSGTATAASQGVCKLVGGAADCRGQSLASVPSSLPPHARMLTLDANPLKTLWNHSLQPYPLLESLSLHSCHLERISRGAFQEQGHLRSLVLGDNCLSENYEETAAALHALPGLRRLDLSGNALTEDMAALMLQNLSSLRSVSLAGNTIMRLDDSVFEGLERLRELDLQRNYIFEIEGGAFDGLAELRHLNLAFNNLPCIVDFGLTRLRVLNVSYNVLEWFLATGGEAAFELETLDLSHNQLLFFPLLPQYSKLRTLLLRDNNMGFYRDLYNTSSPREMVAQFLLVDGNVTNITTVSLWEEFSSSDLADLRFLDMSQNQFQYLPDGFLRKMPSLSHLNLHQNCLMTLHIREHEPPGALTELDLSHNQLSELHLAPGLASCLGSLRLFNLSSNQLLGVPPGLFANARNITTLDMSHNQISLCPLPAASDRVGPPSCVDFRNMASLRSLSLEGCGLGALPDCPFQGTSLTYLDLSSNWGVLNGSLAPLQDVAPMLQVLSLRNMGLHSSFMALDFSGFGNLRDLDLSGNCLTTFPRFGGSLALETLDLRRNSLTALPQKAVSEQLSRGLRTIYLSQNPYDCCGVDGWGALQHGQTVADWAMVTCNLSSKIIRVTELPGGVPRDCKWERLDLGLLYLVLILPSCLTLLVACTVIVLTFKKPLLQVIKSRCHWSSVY
UniProt Q14766: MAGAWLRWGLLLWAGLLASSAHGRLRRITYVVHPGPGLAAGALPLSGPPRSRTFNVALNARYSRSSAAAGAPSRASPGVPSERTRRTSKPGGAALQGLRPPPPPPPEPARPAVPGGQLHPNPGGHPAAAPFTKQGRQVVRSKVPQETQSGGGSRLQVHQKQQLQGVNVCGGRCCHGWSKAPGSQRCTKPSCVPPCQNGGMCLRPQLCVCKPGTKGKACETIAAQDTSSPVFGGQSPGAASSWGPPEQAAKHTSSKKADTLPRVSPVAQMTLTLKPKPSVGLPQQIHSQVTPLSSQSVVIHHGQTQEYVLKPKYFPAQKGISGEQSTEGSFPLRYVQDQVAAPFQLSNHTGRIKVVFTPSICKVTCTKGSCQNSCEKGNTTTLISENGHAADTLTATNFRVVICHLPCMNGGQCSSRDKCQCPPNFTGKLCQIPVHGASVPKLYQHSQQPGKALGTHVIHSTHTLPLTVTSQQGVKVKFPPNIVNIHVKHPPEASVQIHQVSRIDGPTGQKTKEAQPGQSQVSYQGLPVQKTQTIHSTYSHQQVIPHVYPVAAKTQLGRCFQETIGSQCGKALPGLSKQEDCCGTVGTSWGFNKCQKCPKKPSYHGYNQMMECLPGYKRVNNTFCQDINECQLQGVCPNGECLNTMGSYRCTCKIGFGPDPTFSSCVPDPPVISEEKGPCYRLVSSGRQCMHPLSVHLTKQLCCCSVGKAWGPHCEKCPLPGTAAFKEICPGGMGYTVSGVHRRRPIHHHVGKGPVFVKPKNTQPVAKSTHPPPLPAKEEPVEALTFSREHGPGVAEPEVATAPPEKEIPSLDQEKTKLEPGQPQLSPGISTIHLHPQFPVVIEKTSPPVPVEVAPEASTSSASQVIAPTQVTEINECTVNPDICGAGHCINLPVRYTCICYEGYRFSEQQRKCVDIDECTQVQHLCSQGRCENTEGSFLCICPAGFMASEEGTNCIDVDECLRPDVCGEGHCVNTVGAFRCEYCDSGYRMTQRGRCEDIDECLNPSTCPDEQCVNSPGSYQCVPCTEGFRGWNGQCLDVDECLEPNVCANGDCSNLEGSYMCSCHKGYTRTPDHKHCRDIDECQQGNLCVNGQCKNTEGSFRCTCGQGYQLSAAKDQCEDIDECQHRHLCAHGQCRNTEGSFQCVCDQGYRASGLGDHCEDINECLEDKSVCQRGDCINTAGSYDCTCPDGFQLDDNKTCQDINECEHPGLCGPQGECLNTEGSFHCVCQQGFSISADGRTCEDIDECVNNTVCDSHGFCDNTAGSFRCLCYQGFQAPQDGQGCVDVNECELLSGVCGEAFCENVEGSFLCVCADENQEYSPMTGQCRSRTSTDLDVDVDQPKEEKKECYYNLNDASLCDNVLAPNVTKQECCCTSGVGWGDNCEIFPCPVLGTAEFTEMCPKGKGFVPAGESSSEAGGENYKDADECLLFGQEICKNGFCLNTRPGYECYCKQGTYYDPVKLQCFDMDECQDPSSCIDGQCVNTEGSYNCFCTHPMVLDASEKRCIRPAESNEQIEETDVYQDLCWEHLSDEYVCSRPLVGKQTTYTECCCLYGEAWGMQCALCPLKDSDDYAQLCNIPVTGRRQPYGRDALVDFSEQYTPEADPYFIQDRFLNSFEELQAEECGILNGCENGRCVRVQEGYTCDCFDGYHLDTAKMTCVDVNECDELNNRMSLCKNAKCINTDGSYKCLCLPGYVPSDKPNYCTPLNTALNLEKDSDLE
UniProt Q9NS15: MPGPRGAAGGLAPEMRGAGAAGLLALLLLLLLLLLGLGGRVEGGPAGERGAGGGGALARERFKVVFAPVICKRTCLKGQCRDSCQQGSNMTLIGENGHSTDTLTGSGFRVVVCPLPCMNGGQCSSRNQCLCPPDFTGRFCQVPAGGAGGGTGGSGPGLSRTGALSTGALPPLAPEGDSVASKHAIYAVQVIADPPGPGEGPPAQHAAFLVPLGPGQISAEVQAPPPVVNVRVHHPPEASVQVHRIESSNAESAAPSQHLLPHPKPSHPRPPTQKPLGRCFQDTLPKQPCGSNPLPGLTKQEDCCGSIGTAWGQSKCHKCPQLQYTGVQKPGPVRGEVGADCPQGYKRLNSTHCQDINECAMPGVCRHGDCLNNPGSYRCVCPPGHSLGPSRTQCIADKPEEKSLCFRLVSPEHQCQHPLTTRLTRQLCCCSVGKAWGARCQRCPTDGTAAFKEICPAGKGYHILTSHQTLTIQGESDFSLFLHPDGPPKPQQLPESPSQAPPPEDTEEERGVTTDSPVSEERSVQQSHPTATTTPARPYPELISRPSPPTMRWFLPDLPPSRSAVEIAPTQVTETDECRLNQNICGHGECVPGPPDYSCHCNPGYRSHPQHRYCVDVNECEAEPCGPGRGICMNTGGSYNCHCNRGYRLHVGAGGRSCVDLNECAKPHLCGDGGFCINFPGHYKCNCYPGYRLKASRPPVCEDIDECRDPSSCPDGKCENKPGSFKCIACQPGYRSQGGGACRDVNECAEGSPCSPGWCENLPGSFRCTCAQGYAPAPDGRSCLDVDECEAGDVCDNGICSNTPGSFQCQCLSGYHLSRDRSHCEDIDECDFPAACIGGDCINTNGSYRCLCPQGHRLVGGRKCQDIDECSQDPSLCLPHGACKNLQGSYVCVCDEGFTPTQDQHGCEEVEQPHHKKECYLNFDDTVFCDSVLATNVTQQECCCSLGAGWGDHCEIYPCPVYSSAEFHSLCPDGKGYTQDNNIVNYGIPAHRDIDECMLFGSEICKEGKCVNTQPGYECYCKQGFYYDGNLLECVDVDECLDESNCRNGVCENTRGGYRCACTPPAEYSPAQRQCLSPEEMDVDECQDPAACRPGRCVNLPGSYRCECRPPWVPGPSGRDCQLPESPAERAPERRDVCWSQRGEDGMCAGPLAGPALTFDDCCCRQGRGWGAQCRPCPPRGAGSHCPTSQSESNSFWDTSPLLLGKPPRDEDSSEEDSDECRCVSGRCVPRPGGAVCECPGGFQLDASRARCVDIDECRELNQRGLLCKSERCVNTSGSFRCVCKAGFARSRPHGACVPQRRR
UniProt Q14392: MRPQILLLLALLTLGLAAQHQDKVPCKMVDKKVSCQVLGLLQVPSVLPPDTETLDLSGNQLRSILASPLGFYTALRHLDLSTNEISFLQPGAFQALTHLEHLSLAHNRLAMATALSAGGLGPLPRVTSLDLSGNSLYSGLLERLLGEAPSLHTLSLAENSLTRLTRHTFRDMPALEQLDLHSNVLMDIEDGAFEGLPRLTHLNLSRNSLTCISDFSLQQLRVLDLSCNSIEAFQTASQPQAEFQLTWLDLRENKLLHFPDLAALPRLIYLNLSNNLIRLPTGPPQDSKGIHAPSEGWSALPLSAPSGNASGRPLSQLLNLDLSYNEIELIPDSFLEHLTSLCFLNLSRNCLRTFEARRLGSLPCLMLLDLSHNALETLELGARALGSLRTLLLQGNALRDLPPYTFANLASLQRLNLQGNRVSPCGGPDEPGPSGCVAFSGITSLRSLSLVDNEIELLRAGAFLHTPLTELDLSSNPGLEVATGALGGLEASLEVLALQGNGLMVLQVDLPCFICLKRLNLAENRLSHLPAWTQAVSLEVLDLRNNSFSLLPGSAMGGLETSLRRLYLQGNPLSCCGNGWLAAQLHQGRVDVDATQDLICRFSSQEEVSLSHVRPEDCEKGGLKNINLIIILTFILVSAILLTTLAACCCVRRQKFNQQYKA

Experiments:
[1] = molecular target: T1, human LRRC33-proTGFβ1 complex (human, UniProt Q86YC3 19-650; P01137 30-390, limits assumed); experiment: Biacore (SPR), relative response (RU) against time (s)
T1 construct: also called hLRRC33-proTGFβ1

[2] = molecular target: T2, human LTBP1-proTGFβ1 complex (human, UniProt Q14766 347-1721; P01137 30-390); experiment: as above
T2 construct: also called hLTBP1-proTGFβ1

[3] = molecular target: T3, human LTBP3-proTGFβ1 complex (human, UniProt Q9NS15 44-1303; P01137 30-390, limits assumed); experiment: as above
T3 construct: also called hLTBP3-proTGFβ1

[4] = molecular target: T4, human GARP-proTGFβ1 complex (human, UniProt Q14392 20-627; P01137 30-390, limits assumed); experiment: as above
T4 construct: also called hGARP-proTGFβ1

[5] = molecular target: T1, human LRRC33-proTGFβ1 complex; experiment: SPR (Biacore), Fab; FIG. 2
[6] = molecular target: T2, human LTBP1-proTGFβ1 complex; experiment: SPR (Biacore), Fab; FIG. 2
[7] = molecular target: T3, human LTBP3-proTGFβ1 complex; experiment: SPR (Biacore), Fab; FIG. 2
[8] = molecular target: T4, human GARP-proTGFβ1 complex; experiment: SPR (Biacore), Fab; FIG. 2
[9] = molecular target: T2, human LTBP1-proTGFβ1 complex; experiment: SPR (Biacore), monovalent Fab
[10] = molecular target: T3, human LTBP3-proTGFβ1 complex; experiment: SPR (Biacore), monovalent Fab
[11] = molecular target: T2, human LTBP1-proTGFβ1 complex; experiment: SPR (Biacore), Fab
[12] = molecular target: T3, human LTBP3-proTGFβ1 complex; experiment: SPR (Biacore), Fab

Measured: binding

B1: Ab42 human Fab (Fab, V domains shown)
VH: QVQLVESGGGVVQPGRSLRLSCAASGFTFRSYVMHWVRQAPGKGLEWVAVISHEGSLKYYADSVKGRFTISRDNSKNTLYLQMNSLRAEDTAVYYCARPRIAARRGGFGYWGQGTLVTVSS
VL: NFMLTQPHSVSESPGKTVTISCTRSSGNIDNNYVQWYQQRPGSSPTTVIYEDNQRPSGVPDRFSGSIDSSSNSASLTISGLKTEDEADYYCQSYDYDTQGVVFGGGTKLTVL
notes: Fab of Ab42; also called Ab42 Fab; Ab42 (monovalent, Fab)
binds: all assays above
